PubChem BioAssay AID1224831 – NIAID | 2016

Test: 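Confirming genome-wide hits on LPS-triggered TNF-alpha induction with independent siRNA sequences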 (follow-up of hits)
System: human THP-1 B5 monocytic leukaemia cells carrying a TNF promoter luciferase reporter, made macrophage-like with PMA
Reagents: single siRNA against human genes, 50 nM
Duration: about 68 h of knock-down, then 4 h LPS
Challenge: LPS (Salmonella minnesota, TLR-grade) at 10 ng/ml for 4 h; PMA 5 ng/ml present during knock-down
Measurement: 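TNF promoter reporter read as dual luciferase ratio after 4 h LPS, normalised per plate to its median, given as replicate mean robust z-score per siRNA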
Scale: TNF reporter z-score: higher = stronger LPS-induced TNF reporter signal; z-score, median over gene's siRNAs: higher = stronger TNF reporter signal across the gene's siRNAs
Active means: 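Active when the replicate mean z-score is about -1 or lower, or about 1.5 or higher; lowered and raised TNF reporter signal both count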
Meaning of the calls: active = changed TNF reporter (either direction); inactive = little change
Shown is a random part of about 3,500 reagents tested. Of all reagents, 731 (21%) are marked active. 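Active means either lowered or raised reporter signal; the gene-median score did not drive the per-siRNA calls.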 Entries without a mark were called inactive. Reagents against one gene are numbered here. No sequences are given here.

{"target gene": "C1QTNF6", "siRNA no.": 1, "TNF reporter z-score, replicate mean": -0.38, "z-score, median over gene's siRNAs": -0.27}
{"target gene": "C1QTNF6", "siRNA no.": 2, "TNF reporter z-score, replicate mean": -0.16, "z-score, median over gene's siRNAs": -0.27}
{"target gene": "C1QTNF6", "siRNA no.": 3, "TNF reporter z-score, replicate mean": "-1.28 (active)", "z-score, median over gene's siRNAs": -0.27}
{"target gene": "C1QTNF6", "siRNA no.": 4, "TNF reporter z-score, replicate mean": -0.95, "z-score, median over gene's siRNAs": -0.27}
{"target gene": "C1QTNF6", "siRNA no.": 5, "TNF reporter z-score, replicate mean": 0.56, "z-score, median over gene's siRNAs": -0.27}
{"target gene": "C1QTNF6", "siRNA no.": 6, "TNF reporter z-score, replicate mean": 0.23, "z-score, median over gene's siRNAs": -0.27}
{"target gene": "UBXN10", "siRNA no.": 1, "TNF reporter z-score, replicate mean": -0.89, "z-score, median over gene's siRNAs": 0.135}
{"target gene": "UBXN10", "siRNA no.": 2, "TNF reporter z-score, replicate mean": 0.22, "z-score, median over gene's siRNAs": 0.135}
{"target gene": "UBXN10", "siRNA no.": 3, "TNF reporter z-score, replicate mean": 1.14, "z-score, median over gene's siRNAs": 0.135}
{"target gene": "UBXN10", "siRNA no.": 4, "TNF reporter z-score, replicate mean": 0.05, "z-score, median over gene's siRNAs": 0.135}
{"target gene": "UBXN10", "siRNA no.": 5, "TNF reporter z-score, replicate mean": -0.08, "z-score, median over gene's siRNAs": 0.135}
{"target gene": "UBXN10", "siRNA no.": 6, "TNF reporter z-score, replicate mean": "1.82 (active)", "z-score, median over gene's siRNAs": 0.135}
{"target gene": "CEACAM18", "siRNA no.": 1, "TNF reporter z-score, replicate mean": 0.68, "z-score, median over gene's siRNAs": 1.09}
{"target gene": "CEACAM18", "siRNA no.": 2, "TNF reporter z-score, replicate mean": "-1.17 (active)", "z-score, median over gene's siRNAs": 1.09}
{"target gene": "CEACAM18", "siRNA no.": 3, "TNF reporter z-score, replicate mean": 1.15, "z-score, median over gene's siRNAs": 1.09}
{"target gene": "CEACAM18", "siRNA no.": 4, "TNF reporter z-score, replicate mean": 1.25, "z-score, median over gene's siRNAs": 1.09}
{"target gene": "CEACAM18", "siRNA no.": 5, "TNF reporter z-score, replicate mean": "3.45 (active)", "z-score, median over gene's siRNAs": 1.09}
{"target gene": "CEACAM18", "siRNA no.": 6, "TNF reporter z-score, replicate mean": 1.03, "z-score, median over gene's siRNAs": 1.09}

Entries above with an active call, once more:
{"target gene": "C1QTNF6", "siRNA no.": 3, "TNF reporter z-score, replicate mean": "-1.28 (active)", "z-score, median over gene's siRNAs": -0.27}
{"target gene": "UBXN10", "siRNA no.": 6, "TNF reporter z-score, replicate mean": "1.82 (active)", "z-score, median over gene's siRNAs": 0.135}
{"target gene": "CEACAM18", "siRNA no.": 2, "TNF reporter z-score, replicate mean": "-1.17 (active)", "z-score, median over gene's siRNAs": 1.09}
{"target gene": "CEACAM18", "siRNA no.": 5, "TNF reporter z-score, replicate mean": "3.45 (active)", "z-score, median over gene's siRNAs": 1.09}
